The campaign covered roughly 390,000 compounds. About 760 (0.19%) were called active. Inconclusive means that the source gave no clear call. Such entries were picked first, then a sample of the others. Calls follow the shape of the dose curve; as a rule, active = well fitted inhibition curve with a large enough effect; inconclusive = small, poorly fitted or top-dose-only effect; inactive = flat fitted curve, though single readings scatter. Potencies of inconclusive entries are doubtful fits and often do not repeat.
Experiment: qHTS for Inhibitors of Vif-A3F Interactions: qHTS; also: nearly all actives have a fitted effect of over 65% in size
Details: HeLa A3F-eYFP + Vif (tagged APOBEC3F with the HIV-1 protein that degrades it), YFP fluorescence increase; series mostly up to 46.1 µM
Outline: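 HeLa cells stably expressing A3F-eYFP plus Vif, plated and incubated overnight at 37 deg C, then exposed to compounds overnight at 37 deg C. Blocked degradation read as raised yellow fluorescence (Ex 488/Em 500-530).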
Potency is read from the fitted curve at half-maximal effect.

SMILES | Potency
CC(=O)OCCNc1cc(N2CCN(C)CC2)c2noc3c2c1C(=O)c1ccccc1-3 | inconclusive: 35.5 µM [inhibitor, single point]
Cc1ccc(S(=O)(=O)c2c(C)cc(C)nc2N2CCCC2)cc1 | inconclusive: 17.8 µM [inhibitor, single point]
CCOC(=O)CCCCC(=O)c1[nH]c(=O)[nH]c1Cn1ccnc1 | inactive
Nc1nc(N)c2cc(S(=O)(=O)c3ccc4ccccc4c3)ccc2n1 | inconclusive: 25.1 µM [inhibitor, partial curve, poor fit]
CCOc1ccc(NC(=O)CSc2nc3ccsc3c(=O)n2CCCCCC(=O)O)cc1 | inconclusive: 6.31 µM [inhibitor, single point]
COc1ccc(CCNC(=O)CC2Nc3cc(C)c(C)cc3NC2=O)cc1OC (stereo not given) | inconclusive: 25.1 µM [inhibitor, single point]
CC(=O)NC(Cc1ccc(C)cc1)C(=O)NC1CCN(c2ncccc2[N+](=O)[O-])CC1 (stereo not given) | inconclusive: 5.62 µM [inhibitor, partial curve]
S=C1NC2=C(CCCC2=C2SCCCS2)C(c2ccccc2)N1 (stereo not given) | inactive
Cc1cccnc1NC(=O)c1cccc(S(=O)(=O)N2CCN(c3ccc(F)cc3)CC2)c1 | inconclusive: 35.5 µM [inhibitor, single point]
CC(C)OCc1cc(CN2CCN(c3cccc(C(F)(F)F)c3)CC2)c(O)c2ncccc12 | inconclusive: 11.2 µM [inhibitor, partial curve, poor fit]
O=C(Nc1ccc2nc(-c3cccs3)c(-c3cccs3)nc2c1)NC1CC1 | inactive
Brc1ccc(-c2ccc(/C=N/Nc3nncc(-c4ccccc4)n3)o2)cc1 | inactive
CCOc1ccc(C2C(C(=O)c3ccc(C)o3)=C(O)C(=O)N2CCN2CCOCC2)cc1OC (stereo not given) | inactive
CN1C(=O)c2cccc(NCCCN3C(=O)c4ccccc4C3=O)c2C1=O | active: 25.1 µM
COc1cc(/C=N/n2c(C3CCCCC3)n[nH]c2=S)ccc1O | inconclusive: 6.31 µM [inhibitor, single point]
COc1ccccc1OCC(=O)N1CCN(C(=O)COc2ccccc2OC)CC1 | inconclusive: 10 µM [inhibitor, partial curve, poor fit]
CC(C)n1c(N)c(C#N)c2ccc([N+](=O)[O-])cc2c1=O | inconclusive: 35.5 µM [inhibitor, single point]
Cc1ccc(C(=O)Nc2cccc(S(=O)(=O)N3CCOCC3)c2)cc1[N+](=O)[O-] | inconclusive: 35.5 µM [inhibitor, single point]
CCOc1ccc(S(=O)(=O)Nc2ccc3oc4c(c3c2)CC(C)CC4)cc1 (stereo not given) | inactive
COc1ccc(OCCSc2nc(N)cc(N)n2)cc1 | inactive
CC(C)CN(CC(C)C)CC(O)Cn1cc(/C=C/C(=O)c2ccccc2)c2ccccc21 (stereo not given) | inconclusive: 35.5 µM [inhibitor, single point]
Cc1ccccc1NC(=S)NCCc1ccccc1 | inactive
C/C(=N\NC(=S)NCCc1ccccc1)c1cccc(Br)c1 | inconclusive: 6.31 µM [inhibitor, single point]

Part of the list above in another layout.
CC(C)OCc1cc(CN2CCN(c3cccc(C(F)(F)F)c3)CC2)c(O)c2ncccc12
  Potency: inconclusive: 11.2 µM [inhibitor, partial curve, poor fit]
O=C(Nc1ccc2nc(-c3cccs3)c(-c3cccs3)nc2c1)NC1CC1
  Potency: inactive

The results go on:

SMILES | Potency
COc1ccc(-c2cc(C3CC3)nc(SCC(=O)c3cccs3)c2C#N)cc1 | inconclusive: 15.8 µM [inhibitor, single point]
O=C(Nc1ccc(Br)cc1)C1CC(O)CN1C(=O)Oc1ccccc1 (stereo not given) | inconclusive: 3.16 µM [inhibitor, single point]
N#C/C(=C\c1ccc(C#N)cc1)C(=O)c1ccccc1 | inactive
CN(C)C=Nc1c(Br)cc(Br)c2nonc12 | active: 11.2 µM
CS(=O)(=O)Nc1cccc(C(=O)CC2(O)C(=O)Nc3ccc(Br)cc32)c1 (stereo not given) | inactive
CCN(Cc1nc2ccccc2c(=O)[nH]1)Cc1nc2ccsc2c(=O)[nH]1 | inconclusive: 2.24 µM [inhibitor, partial curve, poor fit]
O=S(=O)(Nc1ccc(Br)cn1)c1ccc2ccccc2c1 | inconclusive: 6.31 µM [inhibitor, partial curve, poor fit]
COc1ccc(NC(=S)N/N=C2\CC(C)(C)Oc3ccc(O)cc32)cc1 | inconclusive: 3.98 µM [inhibitor, single point]
Cc1nc(NC(=O)CSc2nnc(-c3ccccc3)c(-c3ccccc3)n2)c(Cl)cc1Cl | inconclusive: 20 µM [inhibitor, single point]
Cc1cc2c(cc1C)CSC(c1ccccc1OC(=O)C(C)(C)C)SC2 | inactive
CCN1/C(=C\C=C(C(C)=O)C(C)=O)Sc2ccccc21 | active: 22.4 µM
Cc1ccc(C(C(=O)NC2CCCCC2)N(Cc2ccco2)C(=O)Cc2c[nH]c3ccccc23)o1 (stereo not given) | inactive
Nc1nnc(SCC(=O)Nc2cc(F)ccc2F)s1 | inconclusive: 14.1 µM [inhibitor, partial curve, poor fit]
COC(=O)c1ccc(NC(=O)CC2C(=O)N(c3ccccc3)C(=O)N2Cc2ccc(F)cc2)cc1 (stereo not given) | inactive
CCc1ccccc1OCC(=O)Nc1nc(-c2cccnc2)cs1 | inconclusive: 3.55 µM [inhibitor, partial curve, poor fit]
COc1ccc(C(=O)CC(=O)c2ccc(OC)cc2)cc1 | inactive
Cc1ccc(C)c2nc3sc(C(=O)O)cc3cc12 | inconclusive: 5.62 µM [inhibitor, single point]
CCN1CCc2c(sc(-n3cccc3)c2C(C)NC(=O)Nc2ccc(Br)cc2)C1 (stereo not given) | inconclusive: 20 µM [inhibitor, partial curve, poor fit]
COc1ccc2nc3c(cc2c1)c(NC(=O)CC(C)C)nn3CC(C)C | inactive
Cc1cc(C(=O)N/N=C/c2ccc(Cl)c([N+](=O)[O-])c2)c(C)n1-c1ccc(F)cc1 | inconclusive: 35.5 µM [inhibitor, single point]
O=C(Cn1ncc2c3ccccc3n(Cc3cccc(Cl)c3)c2c1=O)Nc1ccc(F)cc1F | inconclusive: 11.2 µM [inhibitor, partial curve, poor fit]
O=C1S/C(=C\C=C\c2ccco2)C(=O)N1c1ccccc1 | inconclusive: 35.5 µM [inhibitor, single point]

Of the compounds above, 2 contain a COOH group.
SMILES | Potency
CCOc1ccc(NC(=O)CSc2nc3ccsc3c(=O)n2CCCCCC(=O)O)cc1 | inconclusive: 6.31 µM [inhibitor, single point]
Cc1ccc(C)c2nc3sc(C(=O)O)cc3cc12 | inconclusive: 5.62 µM [inhibitor, single point]

Source: PubChem BioAssay AID602313 (National Center for Advancing Translational Sciences (NCATS), 2012)
